Data taken from patent publication US20040072285A1 (OREGON HEALTH AND SCIENCE UNIVERSITY, published 2004).
These are yes or no findings as the source states them, for the method shown. For some assays here: In cells and extracts the contact can be indirect. Some results given as binding are weak or reduced against the parent protein; the word gives no strength. For some assays here: Sequences can lack the tags named with a protein. One block for each substance: values may come before it.

Sequences of proteins named here, by UniProt entry; tags and fusion partners are left off. A change or cut given only in a name is not applied to a line headed by its entry.
UniProt P0A7C2: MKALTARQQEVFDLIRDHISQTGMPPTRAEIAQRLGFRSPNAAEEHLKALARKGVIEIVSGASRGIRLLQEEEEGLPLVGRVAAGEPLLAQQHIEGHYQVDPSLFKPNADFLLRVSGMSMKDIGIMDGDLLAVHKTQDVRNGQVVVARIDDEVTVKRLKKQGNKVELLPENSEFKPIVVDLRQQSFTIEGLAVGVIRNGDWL

Columns and labels:
[1] = molecular target: EGFP::P4.33 fusion protein (human) [GFP: P42212]; experiment: colocalization and co-immunoprecipitation in transfected COS-7 cells
[2] = molecular target: EGFP::P4.33 fusion protein (human) [GFP: P42212]; experiment: co-immunoprecipitation with α-FLAG M2 beads or α-GFP antibody, western immunoblot with the opposing antibody
[3] = molecular target: EGFP::P4.33 fusion protein (human) [GFP: P42212]; experiment: co-immunoprecipitation with anti-EGFP or anti-FLAG M2 antibody
[4] = molecular target: EGFP::P4.33 fusion protein (human) [GFP: P42212]; experiment: co-immunoprecipitation, western immunoblot
[5] = molecular target: T1, clone 4.33 library cDNA product fused to the GAL4 transcriptional activation domain (yeast two-hybrid prey) (human) (UniProt Q86XT9); experiment: yeast two-hybrid screen
T1 sequence: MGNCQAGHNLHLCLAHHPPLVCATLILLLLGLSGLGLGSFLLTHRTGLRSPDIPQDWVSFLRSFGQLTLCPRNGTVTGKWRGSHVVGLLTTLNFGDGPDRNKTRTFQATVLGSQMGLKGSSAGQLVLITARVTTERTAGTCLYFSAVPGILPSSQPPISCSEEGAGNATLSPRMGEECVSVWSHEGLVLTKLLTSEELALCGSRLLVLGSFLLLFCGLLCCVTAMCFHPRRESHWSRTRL

[6] = molecular target: T1, clone 4.33 library cDNA product fused to the GAL4 transcriptional activation domain (yeast two-hybrid prey) (human); experiment: yeast two-hybrid, β-galactosidase and mating assays
[7] = molecular target: T1, clone 4.33 library cDNA product fused to the GAL4 transcriptional activation domain (yeast two-hybrid prey) (human); experiment: yeast two-hybrid screen of an Hs578T cDNA library
[8] = molecular target: T2, P4.33 tagged with FLAG at the C-terminus (P4.33^F) (human) (UniProt Q86XT9); experiment: western ligand blot of immunoprecipitated IGFBP-3R^F
T2 sequence: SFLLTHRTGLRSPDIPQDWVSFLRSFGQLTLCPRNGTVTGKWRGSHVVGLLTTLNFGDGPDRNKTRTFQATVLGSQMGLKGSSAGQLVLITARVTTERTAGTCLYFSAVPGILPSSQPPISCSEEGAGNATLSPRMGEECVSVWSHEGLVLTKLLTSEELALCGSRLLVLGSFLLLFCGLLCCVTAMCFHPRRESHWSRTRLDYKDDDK

[9] = molecular target: T2, P4.33 tagged with FLAG at the C-terminus (P4.33^F) (human); experiment: cell-surface binding competed by cold IGFBP-3, transfected Hs578T cells
[10] = molecular target: T2, P4.33 tagged with FLAG at the C-terminus (P4.33^F) (human); experiment: monolayer cell-surface binding assay, Hs578T, MCF-7 and Sf9 cells
[11] = molecular target: T2, P4.33 tagged with FLAG at the C-terminus (P4.33^F) (human); experiment: cell-surface binding with unlabelled IGFBP-3 as competitor, transfected Hs578T cells

- binding [1]: binds
- binding [2]: binds
- binding [3]: binds
- binding [4]: binds
Substance: FLAG-tagged IGFBP-3 (IGFBP-3^F) (from UniProt P17936 28-291) (ligand)

- binding [5]: binds
- binding [6]: binds
- binding [7]: binds
Substance: IGFBP-3 amino acids 88-148 fused to the LexA DNA binding domain (yeast two-hybrid bait) (from UniProt P0A7C2 1-202; P17936 115-175)

- binding [8]: binds
- binding [9]: binds
- binding [10]: binds
- binding [11]: binds
Substance: Insulin-like Growth Factor Binding Protein-3 (IGFBP-3) (from UniProt P17936 28-291) (ligand)
